We go through two molecules from publication PMC3877758 (2013).

The chains behind the UniProt entries cited, without tags or fusion partners. Where a name states a change or a piece, a line headed by the entry shows the natural chain unless it says otherwise.
UniProt P38431: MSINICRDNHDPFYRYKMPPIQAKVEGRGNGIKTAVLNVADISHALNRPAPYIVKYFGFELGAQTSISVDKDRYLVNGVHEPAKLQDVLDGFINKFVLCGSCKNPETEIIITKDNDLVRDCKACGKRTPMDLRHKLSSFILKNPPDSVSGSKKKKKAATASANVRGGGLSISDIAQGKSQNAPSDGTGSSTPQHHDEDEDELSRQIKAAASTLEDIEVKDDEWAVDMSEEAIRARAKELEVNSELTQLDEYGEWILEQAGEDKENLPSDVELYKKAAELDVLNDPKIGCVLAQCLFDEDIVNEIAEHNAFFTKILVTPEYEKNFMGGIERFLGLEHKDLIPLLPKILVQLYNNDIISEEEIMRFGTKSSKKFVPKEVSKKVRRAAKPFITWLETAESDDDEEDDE
UniProt P14741: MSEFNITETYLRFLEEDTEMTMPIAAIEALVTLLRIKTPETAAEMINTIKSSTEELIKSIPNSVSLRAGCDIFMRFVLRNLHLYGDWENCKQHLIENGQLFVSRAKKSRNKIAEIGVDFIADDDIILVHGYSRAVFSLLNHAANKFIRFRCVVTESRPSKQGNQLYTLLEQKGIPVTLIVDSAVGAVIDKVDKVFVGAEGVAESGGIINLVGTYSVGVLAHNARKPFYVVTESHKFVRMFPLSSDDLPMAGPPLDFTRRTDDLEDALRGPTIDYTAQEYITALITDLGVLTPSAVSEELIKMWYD

Results are given in words; binding and its absence hold for the method and conditions named. Some entries that bind do so weakly or less than the wild type. For some assays here: Sequences can lack the tags named with a protein.

Assay [1] addresses GST-eIF5 (yeast (Saccharomyces cerevisiae)) (UniProt P38431). Kind of assay: pull-down; GDF assay (competition): 1 µg eIF2 or eIF2αP and 1 µg GST-eIF5 bound to glutathione sepharose beads 2 h at 4°C, washed, then challenged 2 h at 4°C with increasing concentrations of Flag-eIF2B complexes, subunits or eIF5-Flag; 30 mM HEPES, 100 mM KCl, 100 µM GDP, 5 mM DTT, 1 mM NaF, 2.5 mM MgCl2, 0.05% Triton X-100; bound eIF2 by immunoblot; fit y = 1 − [x/(x + IC50)]; both purified. For orientation: In western blotting, separated proteins are transferred to a membrane and probed.

The target of assay [2] is T1, eIF2Bγ (GCD1-Flag2-His6), co-overexpressed with other eIF2B subunits (yeast (Saccharomyces cerevisiae)) (UniProt P09032).
T1 sequence: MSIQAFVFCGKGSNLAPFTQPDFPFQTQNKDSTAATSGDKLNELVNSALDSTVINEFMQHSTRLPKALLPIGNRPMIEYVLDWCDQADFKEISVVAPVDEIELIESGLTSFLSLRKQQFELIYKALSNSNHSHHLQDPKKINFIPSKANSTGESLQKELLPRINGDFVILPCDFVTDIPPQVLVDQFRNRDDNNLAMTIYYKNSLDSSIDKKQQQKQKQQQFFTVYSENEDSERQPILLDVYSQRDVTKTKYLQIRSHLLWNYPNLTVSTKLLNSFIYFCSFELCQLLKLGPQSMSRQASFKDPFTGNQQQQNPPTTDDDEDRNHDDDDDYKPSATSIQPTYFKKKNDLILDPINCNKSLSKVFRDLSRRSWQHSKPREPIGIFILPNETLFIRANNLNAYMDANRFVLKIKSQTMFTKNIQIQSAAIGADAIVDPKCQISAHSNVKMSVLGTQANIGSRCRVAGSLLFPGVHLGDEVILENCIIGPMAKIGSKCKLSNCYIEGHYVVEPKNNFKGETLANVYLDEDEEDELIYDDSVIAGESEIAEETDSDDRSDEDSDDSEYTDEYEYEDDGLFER
Kind of assay: Flag affinity co-purification; eIF2B subunits co-overexpressed in yeast from high-copy plasmids; bound to Flag M2 affinity resin and eluted with 3xFlag peptide; subunit composition of the eluate.

On to “eIF2B complex (five subunits α, β, γ, δ, ɛ) (from UniProt P14741 1-305; P32502 1-381; P09032 1-578; P12754 1-651; P32501 1-712)”, for which the binding result in assay [1] is recorded as “no binding”.

B1: eIF2Bɛ (GCD6), co-overexpressed with eIF2Bγ (protein, UniProt P32501 1-712)
chain: MAGKKGQKKSGLGNHGKNSDMDVEDRLQAVVLTDSYETRFMPLTAVKPRCLLPLANVPLIEYTLEFLAKAGVHEVFLICSSHANQINDYIENSKWNLPWSPFKITTIMSPEARCTGDVMRDLDNRGIITGDFILVSGDVLTNIDFSKMLEFHKKMHLQDKDHISTMCLSKASTYPKTRTIEPAAFVLDKSTSRCIYYQDLPLPSSREKTSIQIDPELLDNVDEFVIRNDLIDCRIDICTSHVPLIFQENFDYQSLRTDFVKGVISSDILGKHIYAYLTDEYAVRVESWQTYDTISQDFLGRWCYPLVLDSNIQDDQTYSYESRHIYKEKDVVLAQSCKIGKCTAIGSGTKIGEGTKIENSVIGRNCQIGENIRIKNSFIWDDCIIGNNSIIDHSLIASNATLGSNVRLNDGCIIGFNVKIDDNMDLDRNTKISASPLKNAGSRMYDNESNEQFDQDLDDQTLAVSIVGDKGVGYIYESEVSDDEDSSTEACKEINTLSNQLDELYLSDDSISSATKKTKKRRTMSVNSIYTDREEIDSEFEDEDFEKEGIATVERAMENNHDLDTALLELNTLRMSMNVTYHEVRIATITALLRRVYHFIATQTLGPKDAVVKVFNQWGLLFKRQAFDEEEYIDLMNIIMEKIVEQSFDKPDLILFSALVSLYDNDIIEEDVIYKWWDNVSTDPRYDEVKKLTVKWVEWLQNADEESSSEEE
Take B1: the binding result in assay [2] is reported as “binds”.
